Counter-ions that a name gives are not always drawn. The list shows a part of the results. Hit calls seldom repeat between salt and free forms of one compound.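 Kinases, fused to nanoluciferase, were expressed in K562 cells; luminescence was measured every 4 h from 2 to 18 h as percent of control (DMSO = 100%, positive control = 0%). A time point is decreased if signal falls significantly (2 sigma). Hits were called by the authors by a rule that is not shown; the count of time points alone does not decide it.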
Legend:
Assay in all cases: kinase-Nluc reporter destabilization hit call (1 = scored as downregulated) (binary); higher = compound decreases kinase abundance
Conditions in all cases: K562; 2-18 h
MAPK1 = MAPK1 (UniProt P28482)
MAPK4 = MAPK4 (UniProt P31152)
MAPKAPK2 = MAPKAPK2 (UniProt P49137)
MKNK1 = MKNK1 (UniProt Q9BUB5)
NTRK2 = NTRK2 (UniProt Q16620)
NTRK3 = NTRK3 (UniProt Q16288)
PAK4 = PAK4 (UniProt O96013)
PBK = PBK (UniProt Q96KB5)
PDGFRB = PDGFRB (UniProt P09619)
PDK1 = PDK1 (UniProt Q15118)

Chains of the proteins cited; added tags and fusions are not shown. Lines headed by an entry give the natural chain unless they say otherwise; changes in a name come on top.
UniProt P28482, whole entry: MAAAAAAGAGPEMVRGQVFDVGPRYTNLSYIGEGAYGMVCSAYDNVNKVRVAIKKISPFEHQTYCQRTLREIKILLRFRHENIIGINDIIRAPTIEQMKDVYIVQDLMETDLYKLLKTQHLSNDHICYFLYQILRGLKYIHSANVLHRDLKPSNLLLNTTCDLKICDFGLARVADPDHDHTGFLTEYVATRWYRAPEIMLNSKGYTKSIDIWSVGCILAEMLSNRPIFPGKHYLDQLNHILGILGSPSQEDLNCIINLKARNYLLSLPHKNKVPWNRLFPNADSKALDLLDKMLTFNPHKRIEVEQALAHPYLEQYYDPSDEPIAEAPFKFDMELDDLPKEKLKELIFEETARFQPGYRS
UniProt P31152, whole entry: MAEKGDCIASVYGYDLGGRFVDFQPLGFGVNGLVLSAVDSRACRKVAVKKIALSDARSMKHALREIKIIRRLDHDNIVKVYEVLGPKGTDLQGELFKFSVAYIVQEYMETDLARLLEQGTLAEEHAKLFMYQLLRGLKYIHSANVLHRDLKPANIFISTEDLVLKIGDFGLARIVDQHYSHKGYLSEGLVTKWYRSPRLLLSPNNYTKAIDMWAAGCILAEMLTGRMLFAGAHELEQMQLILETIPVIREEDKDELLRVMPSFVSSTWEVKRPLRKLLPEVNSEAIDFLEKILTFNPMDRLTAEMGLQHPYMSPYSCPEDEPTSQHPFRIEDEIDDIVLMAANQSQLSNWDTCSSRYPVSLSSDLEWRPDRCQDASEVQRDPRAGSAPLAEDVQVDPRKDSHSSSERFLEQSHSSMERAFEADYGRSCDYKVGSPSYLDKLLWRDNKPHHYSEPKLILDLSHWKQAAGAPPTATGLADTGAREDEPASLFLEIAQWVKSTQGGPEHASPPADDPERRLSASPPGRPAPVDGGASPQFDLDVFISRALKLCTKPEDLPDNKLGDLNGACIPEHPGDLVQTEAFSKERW
UniProt P49137, whole entry, looked up: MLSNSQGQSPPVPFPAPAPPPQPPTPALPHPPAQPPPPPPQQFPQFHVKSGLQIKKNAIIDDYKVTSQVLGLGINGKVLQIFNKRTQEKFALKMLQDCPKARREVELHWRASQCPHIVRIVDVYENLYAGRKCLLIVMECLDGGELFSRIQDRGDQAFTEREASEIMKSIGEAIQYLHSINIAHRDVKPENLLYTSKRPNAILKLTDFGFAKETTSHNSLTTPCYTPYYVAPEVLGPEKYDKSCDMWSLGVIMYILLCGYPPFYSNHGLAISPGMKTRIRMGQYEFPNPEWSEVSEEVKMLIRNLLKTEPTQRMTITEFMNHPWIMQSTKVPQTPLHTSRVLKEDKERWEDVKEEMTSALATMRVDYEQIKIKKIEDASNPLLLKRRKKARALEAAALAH
UniProt Q9BUB5: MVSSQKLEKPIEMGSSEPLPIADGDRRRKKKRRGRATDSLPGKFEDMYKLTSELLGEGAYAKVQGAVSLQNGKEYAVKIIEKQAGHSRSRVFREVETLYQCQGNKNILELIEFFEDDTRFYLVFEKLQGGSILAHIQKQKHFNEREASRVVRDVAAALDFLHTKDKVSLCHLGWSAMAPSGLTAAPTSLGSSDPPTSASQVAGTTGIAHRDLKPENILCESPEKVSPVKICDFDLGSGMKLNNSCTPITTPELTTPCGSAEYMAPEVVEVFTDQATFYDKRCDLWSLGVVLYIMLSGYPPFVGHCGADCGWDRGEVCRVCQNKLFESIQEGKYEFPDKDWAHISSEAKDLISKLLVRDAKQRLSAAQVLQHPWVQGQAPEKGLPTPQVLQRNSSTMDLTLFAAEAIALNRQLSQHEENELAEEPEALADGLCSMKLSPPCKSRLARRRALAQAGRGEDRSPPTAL
UniProt Q16620, whole entry, looked up: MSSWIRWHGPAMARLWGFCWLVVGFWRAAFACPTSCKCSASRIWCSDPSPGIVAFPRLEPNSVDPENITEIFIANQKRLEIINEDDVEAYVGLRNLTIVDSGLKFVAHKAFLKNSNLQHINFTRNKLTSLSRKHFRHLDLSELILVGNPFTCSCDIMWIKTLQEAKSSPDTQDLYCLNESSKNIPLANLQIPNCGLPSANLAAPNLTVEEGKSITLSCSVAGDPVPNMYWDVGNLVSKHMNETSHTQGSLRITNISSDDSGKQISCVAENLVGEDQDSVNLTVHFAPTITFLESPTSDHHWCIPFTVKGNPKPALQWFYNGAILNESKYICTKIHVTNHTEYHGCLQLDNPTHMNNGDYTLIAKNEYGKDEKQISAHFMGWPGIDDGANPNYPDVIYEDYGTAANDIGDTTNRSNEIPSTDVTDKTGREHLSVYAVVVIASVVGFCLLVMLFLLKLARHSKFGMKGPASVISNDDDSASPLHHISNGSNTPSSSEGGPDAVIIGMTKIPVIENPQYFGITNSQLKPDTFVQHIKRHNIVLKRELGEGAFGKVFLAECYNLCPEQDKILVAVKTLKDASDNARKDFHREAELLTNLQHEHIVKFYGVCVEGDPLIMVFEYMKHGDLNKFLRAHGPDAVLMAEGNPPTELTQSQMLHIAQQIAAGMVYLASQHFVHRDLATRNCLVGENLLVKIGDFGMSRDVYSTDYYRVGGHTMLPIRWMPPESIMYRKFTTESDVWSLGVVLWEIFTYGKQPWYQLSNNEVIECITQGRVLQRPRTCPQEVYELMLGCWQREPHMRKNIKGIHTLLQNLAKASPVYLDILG
UniProt Q16288, whole entry, looked up: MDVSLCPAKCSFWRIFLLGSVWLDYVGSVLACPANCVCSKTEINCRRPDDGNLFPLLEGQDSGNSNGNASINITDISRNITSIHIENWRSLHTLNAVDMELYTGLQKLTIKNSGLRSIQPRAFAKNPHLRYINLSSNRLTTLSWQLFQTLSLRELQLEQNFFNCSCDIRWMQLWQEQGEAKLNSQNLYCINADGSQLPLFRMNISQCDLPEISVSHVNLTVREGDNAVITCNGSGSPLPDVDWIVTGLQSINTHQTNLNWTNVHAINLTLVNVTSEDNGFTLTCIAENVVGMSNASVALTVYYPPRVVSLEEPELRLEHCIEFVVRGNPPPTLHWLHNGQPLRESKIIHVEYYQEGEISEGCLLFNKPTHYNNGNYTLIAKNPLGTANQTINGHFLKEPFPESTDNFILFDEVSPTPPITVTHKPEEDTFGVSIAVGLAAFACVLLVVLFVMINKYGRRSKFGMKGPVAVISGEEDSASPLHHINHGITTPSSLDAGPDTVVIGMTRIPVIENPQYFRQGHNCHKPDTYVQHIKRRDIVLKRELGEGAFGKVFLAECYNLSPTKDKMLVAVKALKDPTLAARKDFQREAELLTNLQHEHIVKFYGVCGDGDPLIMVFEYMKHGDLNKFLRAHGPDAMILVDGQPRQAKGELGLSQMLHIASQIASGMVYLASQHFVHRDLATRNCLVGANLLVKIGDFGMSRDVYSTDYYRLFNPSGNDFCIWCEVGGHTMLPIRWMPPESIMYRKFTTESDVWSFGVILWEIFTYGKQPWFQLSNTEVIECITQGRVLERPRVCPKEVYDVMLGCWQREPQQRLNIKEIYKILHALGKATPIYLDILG
UniProt O96013: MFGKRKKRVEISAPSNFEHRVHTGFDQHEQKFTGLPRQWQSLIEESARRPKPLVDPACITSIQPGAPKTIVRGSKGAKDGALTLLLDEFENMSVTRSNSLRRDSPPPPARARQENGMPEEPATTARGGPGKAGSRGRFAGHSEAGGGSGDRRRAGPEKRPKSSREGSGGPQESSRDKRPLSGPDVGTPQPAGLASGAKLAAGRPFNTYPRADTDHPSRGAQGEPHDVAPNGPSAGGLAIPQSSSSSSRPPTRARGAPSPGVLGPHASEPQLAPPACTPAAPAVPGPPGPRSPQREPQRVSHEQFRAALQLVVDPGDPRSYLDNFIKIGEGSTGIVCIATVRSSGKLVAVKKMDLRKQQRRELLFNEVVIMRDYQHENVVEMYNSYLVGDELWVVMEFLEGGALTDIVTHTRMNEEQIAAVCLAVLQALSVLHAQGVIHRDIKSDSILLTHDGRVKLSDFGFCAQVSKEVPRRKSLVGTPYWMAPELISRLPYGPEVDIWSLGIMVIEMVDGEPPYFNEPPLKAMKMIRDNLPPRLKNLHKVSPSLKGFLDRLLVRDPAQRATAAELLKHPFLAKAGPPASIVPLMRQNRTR
UniProt Q96KB5: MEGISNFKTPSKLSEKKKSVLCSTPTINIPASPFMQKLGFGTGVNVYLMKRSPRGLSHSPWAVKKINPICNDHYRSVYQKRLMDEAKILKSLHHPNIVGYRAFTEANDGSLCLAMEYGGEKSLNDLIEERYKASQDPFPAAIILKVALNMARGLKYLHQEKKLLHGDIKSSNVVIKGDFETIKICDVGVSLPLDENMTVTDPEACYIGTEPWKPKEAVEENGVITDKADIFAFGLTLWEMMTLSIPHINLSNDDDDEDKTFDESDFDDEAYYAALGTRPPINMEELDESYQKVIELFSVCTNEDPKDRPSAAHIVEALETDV
UniProt P09619, whole entry: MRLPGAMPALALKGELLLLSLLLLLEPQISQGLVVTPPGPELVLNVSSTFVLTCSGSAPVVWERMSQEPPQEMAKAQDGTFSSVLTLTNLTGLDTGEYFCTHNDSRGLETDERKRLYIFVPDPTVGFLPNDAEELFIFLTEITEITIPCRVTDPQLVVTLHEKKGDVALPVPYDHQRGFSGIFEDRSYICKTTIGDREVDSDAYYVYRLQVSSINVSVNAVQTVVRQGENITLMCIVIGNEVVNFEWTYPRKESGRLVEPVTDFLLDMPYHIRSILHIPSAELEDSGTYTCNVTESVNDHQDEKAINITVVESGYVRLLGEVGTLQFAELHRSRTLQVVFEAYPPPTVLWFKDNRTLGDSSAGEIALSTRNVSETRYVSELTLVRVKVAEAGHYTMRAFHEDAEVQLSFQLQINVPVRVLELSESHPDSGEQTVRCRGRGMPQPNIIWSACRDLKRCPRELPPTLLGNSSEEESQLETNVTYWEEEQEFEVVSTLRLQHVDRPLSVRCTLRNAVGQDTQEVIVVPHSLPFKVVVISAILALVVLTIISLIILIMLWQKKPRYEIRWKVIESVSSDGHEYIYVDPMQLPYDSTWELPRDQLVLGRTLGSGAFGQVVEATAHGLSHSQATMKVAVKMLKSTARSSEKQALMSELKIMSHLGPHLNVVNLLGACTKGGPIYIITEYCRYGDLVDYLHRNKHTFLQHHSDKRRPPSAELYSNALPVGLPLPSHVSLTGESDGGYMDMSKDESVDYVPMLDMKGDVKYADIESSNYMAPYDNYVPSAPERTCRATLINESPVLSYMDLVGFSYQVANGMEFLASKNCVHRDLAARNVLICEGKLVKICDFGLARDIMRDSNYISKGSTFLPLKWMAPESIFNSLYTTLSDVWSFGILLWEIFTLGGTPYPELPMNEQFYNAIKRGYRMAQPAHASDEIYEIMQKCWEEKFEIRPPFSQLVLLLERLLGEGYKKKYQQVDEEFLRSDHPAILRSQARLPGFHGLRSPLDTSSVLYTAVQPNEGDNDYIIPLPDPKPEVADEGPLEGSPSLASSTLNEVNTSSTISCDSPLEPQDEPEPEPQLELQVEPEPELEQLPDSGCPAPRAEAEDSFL
UniProt Q15118, whole entry, looked up: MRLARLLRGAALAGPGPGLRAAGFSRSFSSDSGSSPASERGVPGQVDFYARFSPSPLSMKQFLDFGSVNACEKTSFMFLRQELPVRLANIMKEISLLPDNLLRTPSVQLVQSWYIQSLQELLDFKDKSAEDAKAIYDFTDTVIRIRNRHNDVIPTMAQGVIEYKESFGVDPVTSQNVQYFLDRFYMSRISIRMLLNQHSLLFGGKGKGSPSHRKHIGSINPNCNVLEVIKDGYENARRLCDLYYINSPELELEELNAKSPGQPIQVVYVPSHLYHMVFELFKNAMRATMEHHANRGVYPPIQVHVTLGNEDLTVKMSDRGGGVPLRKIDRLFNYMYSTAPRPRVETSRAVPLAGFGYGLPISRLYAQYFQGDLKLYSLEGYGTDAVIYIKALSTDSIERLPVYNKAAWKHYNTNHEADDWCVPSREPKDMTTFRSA

Measured: kinase-Nluc reporter destabilization hit call

CNC(=O)c1ccccc1Oc1nc(Nc2cc(OC)c(OC)c(OC)c2)ncc1Br (2.5 µM)
inactive: MAPK1 = 0 | MAPK4 = 0 | MAPKAPK2 = 0 | MKNK1 = 0 | NTRK2 = 0 | NTRK3 = 0 | PAK4 = 0 | PBK 0 | PDGFRB 0 | PDK1 = 0

CCN(CC)c1ccc2cc(-c3nc4cc(C)ccc4o3)c(=O)oc2c1 (10 µM)
inactive: MAPK1 = 0 | MAPK4 = 0 | MAPKAPK2 = 0 | MKNK1 = 0 | NTRK2 = 0 | NTRK3 = 0 | PAK4 = 0 | PBK 0 | PDGFRB 0 | PDK1 = 0

Cn1ncc2cc(-c3cnc(N)c(Cl)c3N3CCC4(CCNC4=O)CC3)ccc21 (10 µM)
inactive: MAPK1 = 0 | MAPK4 = 0 | MAPKAPK2 = 0 | MKNK1 = 0 | NTRK2 = 0 | NTRK3 = 0 | PAK4 = 0 | PBK 0 | PDGFRB 0 | PDK1 = 0

CCN(CC)CCC(=O)N1N=C(c2c(-c3ccccc3)c3cc(Br)ccc3[nH]c2=O)CC1c1ccc(Br)cc1 (stereo not given) (2.5 µM)
inactive: MAPK1 = 0 | MAPK4 = 0 | MAPKAPK2 = 0 | MKNK1 = 0 | NTRK2 = 0 | NTRK3 = 0 | PAK4 = 0 | PBK 0 | PDGFRB 0 | PDK1 = 0

C[C@H](NC(=O)[C@H]1NCC[C@@H]1O)c1ccc(-c2noc(CCC3CCCC3)n2)cc1 (10 µM)
inactive: MAPK1 = 0 | MAPK4 = 0 | MAPKAPK2 = 0 | MKNK1 = 0 | NTRK2 = 0 | NTRK3 = 0 | PAK4 = 0 | PBK 0 | PDGFRB 0 | PDK1 = 0

CN(C)CCC=C1c2ccccc2CCc2ccccc21 [Amitriptyline (hydrochloride)] (2.5 µM)
inactive: MAPK1 = 0 | MAPK4 = 0 | MAPKAPK2 = 0 | MKNK1 = 0 | NTRK2 = 0 | NTRK3 = 0 | PAK4 = 0 | PBK 0 | PDGFRB 0 | PDK1 = 0

C=C[C@@](C)(/C=C/c1ccc(O)cc1)CCC=C(C)C [Bakuchiol] (10 µM)
inactive: MAPK1 = 0 | MAPK4 = 0 | MAPKAPK2 = 0 | MKNK1 = 0 | NTRK2 = 0 | NTRK3 = 0 | PAK4 = 0 | PBK 0 | PDGFRB 0 | PDK1 = 0

CNC(=O)c1ccccc1Nc1nc(Nc2ccc3c(c2OC)CCC[C@H](N2CCN(CCO)CC2)C3)ncc1Cl (10 µM)
inactive: MAPK1 = 0 | MAPK4 = 0 | MAPKAPK2 = 0 | MKNK1 = 0 | NTRK2 = 0 | NTRK3 = 0 | PAK4 = 0 | PBK 0 | PDGFRB 0 | PDK1 = 0

Cn1cnc([N+](=O)[O-])c1C[N+](C)(C)C/C=C/C(=O)Nc1cc2c(Nc3ccc(Cl)c(Br)c3)ncnc2cn1 [Tarloxotinib (bromide)] (10 µM)
inactive: MAPK1 = 0 | MAPK4 = 0 | MAPKAPK2 = 0 | MKNK1 = 0 | NTRK2 = 0 | NTRK3 = 0 | PAK4 = 0 | PBK 0 | PDGFRB 0 | PDK1 = 0

CC(=O)c1c(C)c2cnc(Nc3ccc(N4CCN(C(=O)CNc5cccc6c5C(=O)N(C5CCC(=O)NC5=O)C6=O)CC4)cn3)nc2n(C2CCCC2)c1=O (stereo not given) (10 µM)
inactive: MAPK1 = 0 | MAPK4 = 0 | MAPKAPK2 = 0 | MKNK1 = 0 | NTRK2 = 0 | NTRK3 = 0 | PAK4 = 0 | PBK 0 | PDGFRB 0 | PDK1 = 0

CN(C)S(=O)(=O)c1ccc2c(c1)/C(=C/c1cc3c([nH]1)CCCC3)C(=O)N2 (2.5 µM)
inactive: MAPK1 = 0 | MAPK4 = 0 | MAPKAPK2 = 0 | MKNK1 = 0 | NTRK2 = 0 | NTRK3 = 0 | PAK4 = 0 | PBK 0 | PDGFRB 0 | PDK1 = 0

Cn1cc(-c2c[nH]c3ncnc(N4CCOCC4)c23)cc1C#N (10 µM)
inactive: MAPK1 = 0 | MAPK4 = 0 | MAPKAPK2 = 0 | MKNK1 = 0 | NTRK2 = 0 | NTRK3 = 0 | PAK4 = 0 | PBK 0 | PDGFRB 0 | PDK1 = 0

Cc1ccc(NC(=O)c2ccc(CN(CCN(C)C)C(=O)c3cccnc3)cc2)cc1Nc1nccc(-c2cccnc2)n1 [PDGFRα kinase inhibitor 1] (10 µM)
inactive: MAPK1 = 0 | MAPK4 = 0 | MAPKAPK2 = 0 | MKNK1 = 0 | NTRK2 = 0 | NTRK3 = 0 | PAK4 = 0 | PBK 0 | PDGFRB 0 | PDK1 = 0

C[C@@H]1COCCN1c1nc(-c2cnc(N)cc2C(F)F)nc(N2[C@H](C)COC[C@@H]2C)n1 (2.5 µM)
inactive: MAPK1 = 0 | MAPK4 = 0 | MAPKAPK2 = 0 | MKNK1 = 0 | NTRK2 = 0 | NTRK3 = 0 | PAK4 = 0 | PBK 0 | PDGFRB 0 | PDK1 = 0

Cn1cc(C2=C(c3cccc(N)c3)C(=O)NC2=O)c2ccccc21 (10 µM)
inactive: MAPK1 = 0 | MAPK4 = 0 | MAPKAPK2 = 0 | MKNK1 = 0 | NTRK2 = 0 | NTRK3 = 0 | PAK4 = 0 | PBK 0 | PDGFRB 0 | PDK1 = 0

COCCNc1cc(NC(=O)N2CCCc3cc(CN4CCN(C)CC4=O)c(C=O)nc32)ncc1C#N [Roblitinib] (10 µM)
inactive: MAPK1 = 0 | MAPK4 = 0 | MAPKAPK2 = 0 | MKNK1 = 0 | NTRK2 = 0 | NTRK3 = 0 | PAK4 = 0 | PBK 0 | PDGFRB 0 | PDK1 = 0

COc1ccc(/C=C/C(=O)C2(C(=O)/C=C/c3ccc(OC)c(OC)c3)CCCCC2)cc1OC (2.5 µM)
inactive: MAPK1 = 0 | MAPK4 = 0 | MAPKAPK2 = 0 | MKNK1 = 0 | NTRK2 = 0 | NTRK3 = 0 | PAK4 = 0 | PBK 0 | PDGFRB 0 | PDK1 = 0

CC(C)c1cccc(C(C)C)c1N1C(=O)c2ccc(N)cc2C1=O (2.5 µM)
inactive: MAPK1 = 0 | MAPK4 = 0 | MAPKAPK2 = 0 | MKNK1 = 0 | NTRK2 = 0 | NTRK3 = 0 | PAK4 = 0 | PBK 0 | PDGFRB 0 | PDK1 = 0

O=C(O)c1cc(=O)c2c(OCC(O)COc3cccc4oc(C(=O)O)cc(=O)c34)cccc2o1 [Cromolyn (sodium)] (10 µM)
inactive: MAPK1 = 0 | MAPK4 = 0 | MAPKAPK2 = 0 | MKNK1 = 0 | NTRK2 = 0 | NTRK3 = 0 | PAK4 = 0 | PBK 0 | PDGFRB 0 | PDK1 = 0

CC/C(=N\NC(=O)c1ccnc(NCCCN2CCOCC2)c1)c1ccc(Cl)cc1O (2.5 µM)
inactive: MAPK1 = 0 | MAPK4 = 0 | MAPKAPK2 = 0 | MKNK1 = 0 | NTRK2 = 0 | NTRK3 = 0 | PAK4 = 0 | PBK 0 | PDGFRB 0 | PDK1 = 0

CC(C)c1cc(/C=C(\C#N)C(=O)NCCCc2ccccc2)cc(C(C)C)c1O (10 µM)
inactive: MAPK1 = 0 | MAPK4 = 0 | MAPKAPK2 = 0 | MKNK1 = 0 | NTRK2 = 0 | NTRK3 = 0 | PAK4 = 0 | PBK 0 | PDGFRB 0 | PDK1 = 0

CC(C)N1CCN(c2ccc(Nc3ncc4cc5n(c4n3)C3(CCCCC3)CNC5=O)nc2)CC1 [Lerociclib (dihydrochloride)] (2 µM)
inactive: MAPK1 = 0 | MAPK4 = 0 | MAPKAPK2 = 0 | MKNK1 = 0 | NTRK2 = 0 | NTRK3 = 0 | PAK4 = 0 | PBK 0 | PDGFRB 0 | PDK1 = 0

O=C(CNc1cccc(Cl)c1)NC1CCCN(c2ncnc3[nH]ccc23)C1 (stereo not given) (10 µM)
inactive: MAPK1 = 0 | MAPK4 = 0 | MAPKAPK2 = 0 | MKNK1 = 0 | NTRK2 = 0 | NTRK3 = 0 | PAK4 = 0 | PBK 0 | PDGFRB 0 | PDK1 = 0

C=CCc1ccc(O)c(-c2ccc(O)c(CC=C)c2)c1 [Honokiol] (10 µM)
inactive: MAPK1 = 0 | MAPK4 = 0 | MAPKAPK2 = 0 | MKNK1 = 0 | NTRK2 = 0 | NTRK3 = 0 | PAK4 = 0 | PBK 0 | PDGFRB 0 | PDK1 = 0

Cc1cnc(NC2CCOCC2)nc1-n1cnc(C(=O)N[C@H](CN)c2cc(F)cc(Cl)c2)c1 (10 µM)
inactive: MAPK1 = 0 | MAPK4 = 0 | MAPKAPK2 = 0 | MKNK1 = 0 | NTRK2 = 0 | NTRK3 = 0 | PAK4 = 0 | PBK 0 | PDGFRB 0 | PDK1 = 0

Nc1ncnc2c1c(COc1cccc(Cl)c1)nn2C1CCOCC1 (10 µM)
inactive: MAPK1 = 0 | MAPK4 = 0 | MAPKAPK2 = 0 | MKNK1 = 0 | NTRK2 = 0 | NTRK3 = 0 | PAK4 = 0 | PBK 0 | PDGFRB 0 | PDK1 = 0

C=CC(=O)Nc1cc(-n2c(=O)ccc3cnc4ccc(-c5ccc(NS(C)(=O)=O)cc5)cc4c32)ccc1C (10 µM)
inactive: MAPK1 = 0 | MAPK4 = 0 | MAPKAPK2 = 0 | MKNK1 = 0 | NTRK2 = 0 | NTRK3 = 0 | PAK4 = 0 | PBK 0 | PDGFRB 0 | PDK1 = 0

At a glance, 5 of the compounds above:
O=C(CNc1cccc(Cl)c1)NC1CCCN(c2ncnc3[nH]ccc23)C1 (stereo not given) (10 µM)
inactive: MAPK1 = 0 | MAPK4 = 0 | MAPKAPK2 = 0 | MKNK1 = 0 | NTRK2 = 0 | NTRK3 = 0 | PAK4 = 0 | PBK 0 | PDGFRB 0 | PDK1 = 0

C=CCc1ccc(O)c(-c2ccc(O)c(CC=C)c2)c1 [Honokiol] (10 µM)
inactive: MAPK1 = 0 | MAPK4 = 0 | MAPKAPK2 = 0 | MKNK1 = 0 | NTRK2 = 0 | NTRK3 = 0 | PAK4 = 0 | PBK 0 | PDGFRB 0 | PDK1 = 0

Cc1cnc(NC2CCOCC2)nc1-n1cnc(C(=O)N[C@H](CN)c2cc(F)cc(Cl)c2)c1 (10 µM)
inactive: MAPK1 = 0 | MAPK4 = 0 | MAPKAPK2 = 0 | MKNK1 = 0 | NTRK2 = 0 | NTRK3 = 0 | PAK4 = 0 | PBK 0 | PDGFRB 0 | PDK1 = 0

Nc1ncnc2c1c(COc1cccc(Cl)c1)nn2C1CCOCC1 (10 µM)
inactive: MAPK1 = 0 | MAPK4 = 0 | MAPKAPK2 = 0 | MKNK1 = 0 | NTRK2 = 0 | NTRK3 = 0 | PAK4 = 0 | PBK 0 | PDGFRB 0 | PDK1 = 0

C=CC(=O)Nc1cc(-n2c(=O)ccc3cnc4ccc(-c5ccc(NS(C)(=O)=O)cc5)cc4c32)ccc1C (10 µM)
inactive: MAPK1 = 0 | MAPK4 = 0 | MAPKAPK2 = 0 | MKNK1 = 0 | NTRK2 = 0 | NTRK3 = 0 | PAK4 = 0 | PBK 0 | PDGFRB 0 | PDK1 = 0

Further structures.

Cc1nc(-c2cnn(C)c2)nc2c1[nH]c1ncc(-c3ccc(N4CCN(C)CC4)cc3)cc12 [GNE 220 (hydrochloride)] (10 µM)
inactive: MAPK1 = 0 | MAPK4 = 0 | MAPKAPK2 = 0 | MKNK1 = 0 | NTRK2 = 0 | NTRK3 = 0 | PAK4 = 0 | PBK 0 | PDGFRB 0 | PDK1 = 0

O=Nc1c2[nH]c3ccccc3nc-2c2ccccc12 [IQ-1S (free acid)] (2.5 µM)
inactive: MAPK1 = 0 | MAPK4 = 0 | MAPKAPK2 = 0 | MKNK1 = 0 | NTRK2 = 0 | NTRK3 = 0 | PAK4 = 0 | PBK 0 | PDGFRB 0 | PDK1 = 0

Cc1cccc2c3c(ccc12)C(=O)C1=C(OCC1C)C3=O (stereo not given) [Dihydroisotanshinone I] (2.5 µM)
inactive: MAPK1 = 0 | MAPK4 = 0 | MAPKAPK2 = 0 | MKNK1 = 0 | NTRK2 = 0 | NTRK3 = 0 | PAK4 = 0 | PBK 0 | PDGFRB 0 | PDK1 = 0

From the supplement of paper PMC12823440, “Inhibitors supercharge kinase turnover through native proteolytic circuits” (Nature, 2025)
